From article PMC6620328
No constants are given. Whether binding was seen depends on the method and setting. In cells and extracts the contact can be indirect. Some binding calls cover weakened binding; strength is not graded here.

The chains behind the UniProt entries cited, without tags or fusion partners. Where a name states a change or a piece, a line headed by the entry shows the natural chain unless it says otherwise.
UniProt P03905: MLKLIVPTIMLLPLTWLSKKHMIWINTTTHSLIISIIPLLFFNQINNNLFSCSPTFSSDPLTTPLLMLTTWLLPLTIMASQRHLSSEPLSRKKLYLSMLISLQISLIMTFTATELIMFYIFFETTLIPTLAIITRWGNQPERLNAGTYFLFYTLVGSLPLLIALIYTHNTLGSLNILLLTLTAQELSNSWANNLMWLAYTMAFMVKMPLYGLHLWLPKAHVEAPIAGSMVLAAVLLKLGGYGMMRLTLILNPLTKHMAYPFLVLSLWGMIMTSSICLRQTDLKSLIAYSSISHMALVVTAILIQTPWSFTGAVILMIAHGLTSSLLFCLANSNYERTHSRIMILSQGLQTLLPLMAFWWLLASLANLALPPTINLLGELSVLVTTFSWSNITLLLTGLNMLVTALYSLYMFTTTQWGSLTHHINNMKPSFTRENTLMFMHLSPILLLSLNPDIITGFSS
UniProt P03901: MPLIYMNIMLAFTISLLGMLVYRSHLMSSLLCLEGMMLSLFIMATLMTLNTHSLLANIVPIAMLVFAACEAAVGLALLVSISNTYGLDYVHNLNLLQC
UniProt P03915: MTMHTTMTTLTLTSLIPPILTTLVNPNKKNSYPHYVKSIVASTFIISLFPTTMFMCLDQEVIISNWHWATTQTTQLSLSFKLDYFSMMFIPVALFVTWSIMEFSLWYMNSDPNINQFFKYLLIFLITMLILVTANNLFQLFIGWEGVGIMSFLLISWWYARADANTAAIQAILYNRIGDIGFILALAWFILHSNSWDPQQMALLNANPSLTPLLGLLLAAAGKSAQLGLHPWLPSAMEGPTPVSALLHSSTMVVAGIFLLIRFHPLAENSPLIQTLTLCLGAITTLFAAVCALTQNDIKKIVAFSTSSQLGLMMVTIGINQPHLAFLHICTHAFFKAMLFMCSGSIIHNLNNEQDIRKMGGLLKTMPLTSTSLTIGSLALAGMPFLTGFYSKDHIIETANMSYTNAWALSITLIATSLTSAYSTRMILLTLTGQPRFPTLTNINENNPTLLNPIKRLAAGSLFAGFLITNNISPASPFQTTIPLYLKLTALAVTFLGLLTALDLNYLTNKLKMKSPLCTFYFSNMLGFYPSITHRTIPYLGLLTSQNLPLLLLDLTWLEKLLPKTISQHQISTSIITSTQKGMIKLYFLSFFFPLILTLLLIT
UniProt O95298: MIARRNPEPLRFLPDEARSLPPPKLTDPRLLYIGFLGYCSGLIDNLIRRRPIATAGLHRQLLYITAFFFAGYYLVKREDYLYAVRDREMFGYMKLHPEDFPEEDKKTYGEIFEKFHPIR
UniProt P03891: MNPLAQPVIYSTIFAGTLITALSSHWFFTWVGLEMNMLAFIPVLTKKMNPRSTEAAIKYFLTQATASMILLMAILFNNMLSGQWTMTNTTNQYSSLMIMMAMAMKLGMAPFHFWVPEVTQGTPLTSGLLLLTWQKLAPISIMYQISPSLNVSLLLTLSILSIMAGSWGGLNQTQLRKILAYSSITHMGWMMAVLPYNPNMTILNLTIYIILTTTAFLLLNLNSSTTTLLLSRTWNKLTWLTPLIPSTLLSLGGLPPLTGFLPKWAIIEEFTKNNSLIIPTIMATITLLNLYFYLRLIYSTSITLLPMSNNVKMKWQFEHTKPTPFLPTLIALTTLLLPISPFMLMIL

What was measured:
Experiment in all cases: split reporter; split mDHFR protein complementation assay, dilution drop-test of diploid S. cerevisiae on SD agar with methotrexate, 30 °C, growth as colony intensity against the insert-less F1,2 control; ND2 variants fused to F3, partners fused to YFP-F1,2
[1] = target: ND4, YFP-F1,2 mDHFR fusion (human) (UniProt P03905)
[2] = target: ND4L, YFP-F1,2 mDHFR fusion (human) (UniProt P03901)
[3] = target: ND5, YFP-F1,2 mDHFR fusion (human) (UniProt P03915)
[4] = target: NDUFC2, YFP-F1,2 mDHFR fusion (human) (UniProt O95298)

| binding [3] | Substance | binding [1] | binding [2] | binding [4] |
| --- | --- | --- | --- | --- |
| binds | ND2-N150D, F3 mDHFR fusion (from UniProt P03891 1-347) | – | – | – |
| binds | ND2-I57M, F3 mDHFR fusion (from UniProt P03891 1-347) | – | – | – |

| Substance | binding [3] | binding [1] | binding [2] | binding [4] |
| --- | --- | --- | --- | --- |
| ND2 wild type (mtDNA-encoded complex I subunit ND2), F3 mDHFR fusion (from UniProt P03891 1-347) | binds | binds | binds | binds |
